PubChem BioAssay AID2551 (National Center for Advancing Translational Sciences (NCATS), 2010)
The campaign covered roughly 310,000 compounds. About 17,000 (5.5%) were called active. Inconclusive means that the source gave no clear call. Such entries were picked first, then a sample of the others. Calls follow the shape of the dose curve; as a rule, active = well fitted inhibition curve with a large enough effect; inconclusive = small, poorly fitted or top-dose-only effect, or effect the other way; inactive = no such curve, though single readings can be large or run the other way. A potency beside an inconclusive call is a rough fit, not a confirmed value.

Amino acid sequences for entries named in this document (tags omitted). A change or cut given only in a name is not applied to a line headed by its entry.
UniProt P51450: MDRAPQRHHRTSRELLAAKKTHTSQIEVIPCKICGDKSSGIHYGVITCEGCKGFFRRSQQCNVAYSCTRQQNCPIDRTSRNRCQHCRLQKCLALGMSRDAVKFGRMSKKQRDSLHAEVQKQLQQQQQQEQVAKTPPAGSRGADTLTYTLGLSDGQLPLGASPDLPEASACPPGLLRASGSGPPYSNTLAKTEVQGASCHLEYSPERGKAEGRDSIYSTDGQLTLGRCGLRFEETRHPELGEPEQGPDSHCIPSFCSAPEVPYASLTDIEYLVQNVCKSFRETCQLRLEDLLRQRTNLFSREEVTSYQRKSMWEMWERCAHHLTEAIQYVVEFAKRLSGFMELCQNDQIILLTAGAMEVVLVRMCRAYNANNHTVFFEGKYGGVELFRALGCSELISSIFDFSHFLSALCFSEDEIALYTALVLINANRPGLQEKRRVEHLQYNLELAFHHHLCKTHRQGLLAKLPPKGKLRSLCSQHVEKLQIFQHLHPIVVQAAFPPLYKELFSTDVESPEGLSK

What follows are compounds tested against Nuclear receptor ROR-gamma (Mus musculus) (UniProt P51450) (assay: qHTS for inhibitors of ROR gamma transcriptional activity). Conditions: Drosophila S2 Gal4-RORgamma UAS-luciferase reporter, 20 h; activity change, negative = inhibition: at 53.6 µM (top of the series).
In short: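 Drosophila Schneider cells stably carrying a metallothionein-driven Gal4 DBD–ROR gamma fusion and a UAS-Photinus luciferase reporter were exposed to compound for 1 hr, then induced with copper sulfate (700 uM final) for 20 hr at ambient temperature before luminescence reading.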
% is scaled to controls: 0 for no effect and ±100 for the full control effect; potency is read from the fitted curve at half-maximal effect.
Also: nearly all actives have a fitted effect of over 60% in size.

Row | SMILES | Potency | activity change, negative = inhibition
1 | Cc1ccc(-c2nc3ccccc3c(=O)n2NC(=O)COc2ccccc2)cc1 | inconclusive: 22.4 µM [activator, partial curve] | 
2 | Cc1ccc(-c2cc(C(=O)N3CCN(c4ncccn4)CC3)c3cc(Br)ccc3n2)o1 |  | inactive: -24.2%
3 | COc1ccc(N2C(=O)CCC(C(=O)NCc3ccccn3)C2c2ccc(OC)c(OC)c2)cc1 (stereo unspecified) |  | inactive: -2.88%
4 | Cc1cccc(C(=O)NNc2ncnc3c2cnn3C)c1 | inconclusive: 10 µM [inhibitor, partial curve] | 
5 | COc1ccc(NC2CCCN(C(=O)CSc3ccccc3)C2)cc1OC (stereo unspecified) |  | inactive: -1.82%
6 | Cc1cccc(NS(=O)(=O)c2cc(C(=O)OC(C)C(=O)NCc3ccc4c(c3)OCO4)ccc2C)c1 (stereo unspecified) | inconclusive: 12.6 µM [activator, partial curve] | 
7 | COc1cc(C(=O)NC(=S)Nc2ccc(Cl)cn2)cc(OC)c1OC | active: 5.01 µM | 
8 | CCOc1ccc2[nH]c(=O)c(CN(Cc3nnnn3CCc3ccccc3)CC3CCCO3)cc2c1 (stereo unspecified) | inconclusive: 12.6 µM [activator, partial curve] | 
9 | Oc1[nH]c2ccccc2c1N=Nc1ccc(F)cc1 | inconclusive: 3.16 µM [activator, full curve] | 
10 | O=C(c1ccc(Cl)cc1)N1CCCCC(Cl)C1=O (stereo unspecified) | inconclusive: 0.0056 µM [activator, full curve] | 
11 | CCOc1ccc(-c2nc(C#N)c(N3CCCCCC3)o2)cc1 | inconclusive: 35.5 µM [activator, single point] | 
12 | Cc1ccc(-n2nc3c(=O)n(C(C)C(=O)NCc4ccc5c(c4)OCO5)nc(C)c3c2C)cc1 (stereo unspecified) |  | inactive: 26.2%
13 | C=CCN1C(=O)C(CC(=O)Nc2ccc(OCCC)cc2)N(CCCN2CCN(Cc3ccccc3)CC2)C1=S (stereo unspecified) | inconclusive: 35.5 µM [inhibitor, single point] | 
14 | COc1ccc(C(=O)/C=C/Nc2ccccn2)c(OC)c1 |  | inactive: -3.25%
15 | O=C(Nc1ccc2c(c1)nc1n2CCN(Cc2ccccc2)C1)NC1CCCCC1 | inconclusive: 8.91 µM [activator, partial curve] | 
16 | COc1ccc(CNC(=O)c2ccc(Cn3nc(C)c([N+](=O)[O-])c3C)o2)cc1 | active: 5.62 µM | 
17 | CCn1c(SCC(=O)N2CCN(S(=O)(=O)c3ccccc3)CC2)nnc1-c1cccs1 | inconclusive: 20 µM [activator, single point] | 
18 | COc1ccc(C(=O)Cn2c(C(=O)/C=C/c3ccccc3)nc3ccccc32)cc1 | active: 3.98 µM | 
19 | CC(=O)N1CCN(C(=O)C2(NC(=O)Nc3ccccc3Cl)CCCCC2)CC1 | inconclusive: 2.51 µM [inhibitor, partial curve] | 
20 | COc1ccc(CC(=O)NCc2nn(-c3ccccc3)nc2C)cc1OC |  | inactive: -5.81%
21 | O=C(/C=C/c1ccccc1)OCc1ccccc1 |  | inactive: 12.7% [at 10 µM]
22 | O=C(CCC(=O)N1CCN(S(=O)(=O)c2ccc(Cl)cc2)CC1)Nc1ccc(Cl)cc1Cl | inconclusive: 22.4 µM [activator, partial curve] | 
23 | CN(C(=S)NC(=O)C1(C)CC1(Cl)Cl)c1ccccc1 (stereo unspecified) | inconclusive: 31.6 µM [inhibitor, single point] | 
24 | Cc1ccc(-c2nc(N/N=C/c3cccnc3)c3ccccc3n2)cc1 | inconclusive: 35.5 µM [inhibitor, single point] | 

Row | SMILES | Potency | activity change, negative = inhibition
25 | CCCn1c(C)nc2c(NCCN3CCCC3)nc(C)nc21 |  | inactive: 5.45%
26 | CCOC(=O)C1=C(C)NC(C)=C(C(=O)OCC)C1c1ccc([N+](=O)[O-])s1 | inconclusive: 10 µM [activator, partial curve] | 
27 | CSc1ccc(/C=N/NC(=O)c2cccc(O)c2)cc1 |  | inactive: -39.6%
28 | NNc1nc2sc3c(c2c(=O)n1-c1ccccc1)CCCC3 | inconclusive: 7.08 µM [inhibitor, partial curve, poor fit] | 
29 | CCC(=O)N1c2ccc(C)cc2C2=NNC(=S)NC21O (stereo unspecified) | inconclusive: 11.2 µM [inhibitor, partial curve, poor fit] | 
30 | CCOC(=O)c1ccc2nc(NC(=O)c3cccs3)sc2c1 | inconclusive: 3.98 µM [activator, partial curve, poor fit] | 
31 | CC(=O)CC(C)(C)S(=O)(=O)c1ccc(Oc2ccc(S(=O)(=O)C(C)(C)CC(C)=O)cc2)cc1 | inconclusive: 6.31 µM [activator, single point] | 
32 | CCCCCn1c(=O)[nH]c2cc(C(=O)N3CCN(Cc4ccc5c(c4)OCO5)CC3)ccc2c1=O | inconclusive: 6.31 µM [activator, single point] | 
33 | COC(=O)C1=C(C)N(c2cc(C)cc(C)c2)/C(=C/c2ccc(O)cc2)C1=O | inconclusive: 15.8 µM [inhibitor, single point] | 
34 | O=C(Nc1nccs1)c1ccc(N2CCOCC2)c([N+](=O)[O-])c1 | inconclusive: 35.5 µM [inhibitor, single point] | 
35 | CCCOc1ccc2[nH]c(C(=O)N/N=C/c3cc(OC)c(OC)c(OC)c3)cc2c1 | inconclusive: 5.62 µM [activator, single point] | 
36 | O=C(c1ccccc1Nc1ccc(SC(F)F)cc1)N1CCCCCC1 |  | inactive: 17.6%
37 | O=C(CCCN1C(=O)c2ccccc2C1=O)Oc1ccc(F)cc1 | inconclusive: 5.62 µM [activator, single point] | 
38 | Clc1ccc(CSc2nnc3c(n2)[nH]c2ccccc23)cc1 | inconclusive: 10 µM [activator, partial curve] | 
39 | CCCc1nnc(NC(=O)Nc2ccccc2OC)s1 | inconclusive: 14.1 µM [activator, partial curve] | 
40 | COc1cccc(C(=O)CC(C#N)c2ccc(F)cc2)c1 (stereo unspecified) |  | inactive: 21.5%
41 | CCOc1c(Br)cc(/C=C2\C(=O)N(CCC#N)N=C2C)cc1OC | inconclusive: 0.1 µM [inhibitor, full curve, poor fit] | 
42 | CC(C)Oc1cccc(C(=O)NC(=S)Nc2cccc(NC(=O)c3ccccc3Cl)c2)c1 | active: 11.2 µM | 
43 | C=C(C)CNC(=S)N1CCN(C(c2ccccc2)c2ccccc2)CC1 | inconclusive: 35.5 µM [inhibitor, single point] | 
44 | CCNc1nc(SC(C(C)=O)C(C)=O)nc(N(C)C)n1 | active: 5.01 µM | 
45 | CCCN1C(=O)/C(=C2/C=Cc3ccccc3N2CC)SC1=S |  | inactive: 3.35%
46 | CCOC(=O)C(=Cc1cc(=O)c(OC)co1)C(=O)OCC | active: 4.47 µM | 
47 | CN(C(=S)NC(=O)CCCOc1ccc(Cl)cc1Cl)c1ccccc1 | active: 5.62 µM | 
48 | CC1(C)CC(=O)c2sc(NC(=O)C3CC3)nc2C1 | inconclusive: 11.2 µM [activator, partial curve] | 

Compounds from the list above containing a halogen:
Row | SMILES | Potency | activity change, negative = inhibition
2 | Cc1ccc(-c2cc(C(=O)N3CCN(c4ncccn4)CC3)c3cc(Br)ccc3n2)o1 |  | inactive: -24.2%
7 | COc1cc(C(=O)NC(=S)Nc2ccc(Cl)cn2)cc(OC)c1OC | active: 5.01 µM | 
9 | Oc1[nH]c2ccccc2c1N=Nc1ccc(F)cc1 | inconclusive: 3.16 µM [activator, full curve] | 
10 | O=C(c1ccc(Cl)cc1)N1CCCCC(Cl)C1=O (stereo unspecified) | inconclusive: 0.0056 µM [activator, full curve] | 
19 | CC(=O)N1CCN(C(=O)C2(NC(=O)Nc3ccccc3Cl)CCCCC2)CC1 | inconclusive: 2.51 µM [inhibitor, partial curve] | 
22 | O=C(CCC(=O)N1CCN(S(=O)(=O)c2ccc(Cl)cc2)CC1)Nc1ccc(Cl)cc1Cl | inconclusive: 22.4 µM [activator, partial curve] | 
23 | CN(C(=S)NC(=O)C1(C)CC1(Cl)Cl)c1ccccc1 (stereo unspecified) | inconclusive: 31.6 µM [inhibitor, single point] | 
36 | O=C(c1ccccc1Nc1ccc(SC(F)F)cc1)N1CCCCCC1 |  | inactive: 17.6%
37 | O=C(CCCN1C(=O)c2ccccc2C1=O)Oc1ccc(F)cc1 | inconclusive: 5.62 µM [activator, single point] | 
38 | Clc1ccc(CSc2nnc3c(n2)[nH]c2ccccc23)cc1 | inconclusive: 10 µM [activator, partial curve] | 
40 | COc1cccc(C(=O)CC(C#N)c2ccc(F)cc2)c1 (stereo unspecified) |  | inactive: 21.5%
41 | CCOc1c(Br)cc(/C=C2\C(=O)N(CCC#N)N=C2C)cc1OC | inconclusive: 0.1 µM [inhibitor, full curve, poor fit] | 
42 | CC(C)Oc1cccc(C(=O)NC(=S)Nc2cccc(NC(=O)c3ccccc3Cl)c2)c1 | active: 11.2 µM | 
47 | CN(C(=S)NC(=O)CCCOc1ccc(Cl)cc1Cl)c1ccccc1 | active: 5.62 µM | 

Remaining list, next part:

Row | SMILES | Potency | activity change, negative = inhibition
49 | O=C(/C=C/c1ccc(Cl)cc1Cl)Nc1cccc(S(=O)(=O)NC2=NCCCCC2)c1 | inconclusive: 12.6 µM [activator, partial curve] | 
50 | Cc1[nH]c2ccccc2c1/C=N/NC(=O)C1CC1(c1ccccc1)c1ccccc1 (stereo unspecified) | inconclusive: 22.4 µM [activator, single point] | 
51 | Cc1ccc(SCCCCN2CCNCC2)cc1 |  | inactive: 18.2%
52 | CC(C)C(=O)Nc1sc2c(c1-c1nc3ccccc3[nH]1)CCCC2 | active: 11.2 µM | 
53 | COc1ccc(C)c2sc(=NC(=O)C(C)C)n(C)c12 | inconclusive: 4.47 µM [inhibitor, partial curve] | 
54 | Cc1ccc(N2CC(C)Cn3c2nc2c3c(=O)[nH]c(=O)n2C)cc1C (stereo unspecified) |  | inactive: 4.33%
55 | CN(C)C1(CNC(=O)C2CCC(=O)N(Cc3ccc(Cl)cc3)C2)CCCCC1 (stereo unspecified) |  | inactive: -4.57%
56 | CN1CCN(c2ccc(Cl)cc2NS(=O)(=O)c2ccccc2Cl)CC1 |  | inactive: -5.87%
57 | Cc1cc(OCC(=O)Nc2ccncc2)ccc1Cl | inconclusive: 0.708 µM [activator, full curve, poor fit] | 
58 | Cc1ccc(OCc2cccc(S(=O)(=O)N(C)C)c2)c([N+](=O)[O-])n1 |  | inactive: 15.3%
59 | COc1cccc(-n2c(SCC(=O)NCC3CCCO3)nc3c(c2=O)SCC3)c1 (stereo unspecified) |  | inactive: -27.7%
60 | N=C1c2ccccc2CN1NC(=O)c1cccc(S(=O)(=O)N2CCCC2)c1 | inconclusive: 15.8 µM [activator, single point] | 
61 | Cc1cc(C)c2c(NC(=S)NC(=O)c3ccccc3)nn(C)c2n1 | active: 1.41 µM | 
62 | O=C(CSc1nnnn1-c1ccc(Cl)cc1)Nc1cccnc1Cl | inconclusive: 11.2 µM [activator, partial curve] | 
63 | Clc1ccc(Cn2cnc3ccccc32)cc1 | inconclusive: 22.4 µM [inhibitor, single point] | 
64 | O=C(CSc1ccc(Cl)cc1)N1CCN(c2c(Cl)cccc2[N+](=O)[O-])CC1 | inconclusive: 12.6 µM [activator, partial curve] | 
65 | COCCCN(Cc1ccccn1)S(=O)(=O)Cc1ccccc1 | inconclusive: 25.1 µM [inhibitor, single point] | 
66 | Cc1noc(C)c1CSc1nc2ccccc2[nH]1 |  | inactive: -22.8%
67 | CCS(=O)(=O)c1ccc(O)c(NC(=O)COc2ccc(OC)cc2)c1 | inconclusive: 15.8 µM [activator, single point] | 
68 | CCOC(=O)Cc1csc(NC(=O)NC2(C(F)(F)F)Oc3ccc(Cl)cc3O2)n1 (stereo unspecified) |  | inactive: -4.56%
69 | C[C@@H]1CC[C@]2(C(=O)O)CC[C@]3(C)C(=CCC4[C@@]5(C)C[C@@H](O)[C@H](O)[C@@](C)(CO)C5CC[C@]43C)C2[C@H]1C (stereo partly specified) |  | inactive: -34.5%
70 | COc1ccc(C(=O)C(C)Oc2cccc(NC(=O)c3cccc([N+](=O)[O-])c3)c2)cc1 (stereo unspecified) | inconclusive: 15.8 µM [activator, partial curve] | 
71 | COc1cc2[nH]c(=S)n(Cc3cccs3)c(=O)c2cc1OC | inconclusive: 3.16 µM [inhibitor, single point] | 
